Our source for the binding values is paper PMC4831847.

The target of experiment [1] is hPBV capsid protein without the N-terminal peptide (Δ45) (human picobirnavirus (hPBV), strain Hy005102) (UniProt Q50LE5). Nature of the experiment: virus-like particle assembly (CsCl gradient ultracentrifugation + TEM); CP overexpressed in E. coli; VLPs purified in a CsCl gradient (density ~1.3 g/ml) and imaged by TEM (~35 nm).
Experiment [2] concerns the target human picobirnavirus (hPBV) capsid protein, strain Hy005102, untagged (human picobirnavirus (hPBV), strain Hy005102) (UniProt Q50LE5). The description is as above.

These are yes or no findings as the source states them, for the method shown. Some binding calls cover weakened binding; strength is not graded here.

On to “hPBV capsid protein without the N-terminal peptide (Δ45) (from UniProt Q50LE5 46-552) (domain or fragment)”, for which the binding result in experiment [1] is listed as “binds”. Take “human picobirnavirus (hPBV) capsid protein, strain Hy005102, untagged (from UniProt Q50LE5 1-552)”: in experiment [2], the binding result was “binds”.
